These are yes or no findings as the source states them, for the method shown. Binding seen in cells or lysates may run through a third protein. Some results given as binding are weak or reduced against the parent protein; the word gives no strength.

Sequences of proteins named here, by UniProt entry; tags and fusion partners are left off. Residues count along the entry.
UniProt Q15468, residues 375-510: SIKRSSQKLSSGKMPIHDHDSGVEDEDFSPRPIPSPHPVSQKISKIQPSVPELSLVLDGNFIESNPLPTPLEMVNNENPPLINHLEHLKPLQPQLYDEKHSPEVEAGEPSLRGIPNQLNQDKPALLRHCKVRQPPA
UniProt Q9HC77, residues 895-1338: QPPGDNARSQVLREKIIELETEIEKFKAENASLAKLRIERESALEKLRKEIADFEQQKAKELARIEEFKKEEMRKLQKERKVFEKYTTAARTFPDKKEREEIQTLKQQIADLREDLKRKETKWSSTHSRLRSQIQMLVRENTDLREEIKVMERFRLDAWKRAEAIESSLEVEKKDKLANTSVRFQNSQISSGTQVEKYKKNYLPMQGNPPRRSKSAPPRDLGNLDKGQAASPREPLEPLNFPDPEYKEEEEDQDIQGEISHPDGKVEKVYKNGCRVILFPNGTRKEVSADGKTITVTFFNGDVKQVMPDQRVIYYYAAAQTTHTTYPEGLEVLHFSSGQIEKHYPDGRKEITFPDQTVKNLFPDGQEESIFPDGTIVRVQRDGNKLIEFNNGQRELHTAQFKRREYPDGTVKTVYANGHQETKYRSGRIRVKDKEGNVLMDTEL

The results in this text go back to article doi:10.1101/2023.02.07.527589.

This experiment deals with GST_STIL-CR2 (UniProt Q15468). The experiment is described as follows: pull-down.

For “His-MBP_CPAP-CP3 wild type (wt) (from UniProt Q9HC77 895-1338) (domain or fragment)”, the binding entry was “binds”.
